# Structures can show the parent of a compound that is named as a salt. This is one part of the list. Most entries show no effect beyond the scatter of the controls.
# System: hPSC-derived cortical neurons (WA09)
# Assay: nucleus area z-score vs screen plate; higher = larger nuclei (more mature)
# Details: 5 µM; treatment: days 7-14 after plating, readout day 21
row,Structure (SMILES),nucleus area z-score
1,Oc1cc2c(cc1O)[C@@H]1c3ccc(O)c(O)c3OC[C@]1(O)C2 [Hematoxylin],-0.366
2,Cc1ccc(S(=O)(=O)c2ccc([N+](=O)[O-])o2)cc1,-4.73
3,Cn1sc(=O)n(Cc2ccccc2)c1=O,0.973
4,CC(C)Cc1ccc(C(C)C(=O)O)cc1 (stereo not drawn) [Ibuprofen Lysine],0.613
5,CN1CCC[C@H]1c1cccnc1 [Nicotine Ditartrate],-0.54
6,Cn1ncc(Cl)c1-c1cc(C(=O)N[C@H](CN)Cc2ccc(F)c(F)c2)oc1Cl,-8.94
7,CCOC(=O)C1=C(COCCN)NC(C)=C(C(=O)OC)C1c1ccccc1Cl (stereo not drawn) [Amlodipine],-2.83
8,COc1cc(-c2cn(C)c(=O)c3cnccc23)cc(OC)c1CN(C)C,0.4
9,Cc1cc(C)c(S(=O)(=O)n2cc(C)cc2C)c(C)c1,-0.607
10,O=C(Nc1ccc(OC(F)(F)F)cc1)c1sccc1NCc1ccnc2ccccc12,1.41
11,CCOC(=O)[C@@H](N)Cc1ccc(-c2cc(O[C@H](c3ccc(Cl)cc3-n3ccc(C)n3)C(F)(F)F)nc(N)n2)cc1 [Telotristat Etiprate (LX 1606 Hippurate)],0.294
12,COc1cc2nccc(Oc3ccc(NC(=O)C4(C(=O)Nc5ccc(F)cc5)CC4)cc3)c2cc1OC [Cabozantinib malate (XL184)],0.308
13,CNC(=O)c1nn(C)c2c1C(C)(C)Cc1cnc(Nc3ccc(N4CCN(C)CC4)cc3)nc1-2,-6.29
14,CC(=O)O[C@H]1C[C@@H]2CC[C@@H]3[C@H](CC[C@@]4(C)[C@H]3C[C@H]([N+]3(C)CCCCC3)[C@@H]4OC(C)=O)[C@@]2(C)C[C@@H]1N1CCCCC1 [Vecuronium Bromide],1.02
15,CC(C(=O)O)c1cccc(C(=O)c2ccccc2)c1 (stereo not drawn) [Ketoprofen],-0.405
16,CC(C(=O)O)c1cccc(Oc2ccccc2)c1 (stereo not drawn) [Fenoprofen Calcium],1.3
17,CNC[C@H](O)c1ccc(O)c(O)c1 [Epinephrine HCl],0.786
18,COc1cc(OC)c(/C=C/S(=O)(=O)Cc2ccc(OC)c(NCC(=O)O)c2)c(OC)c1,-10.4
19,Cc1cccc(-c2nn3c(c2-c2ccnc4ccc(C(N)=O)cc24)CCC3)n1,3.4
20,O=C(Nc1c(Cl)cncc1Cl)c1ccc(OC(F)F)c(OCC2CC2)c1 [Roflumilast],1.57
21,Cc1cc([C@@H](C)Nc2ccccc2C(=O)O)c2nc(N3CCOCC3)cc(=O)n2c1,-0.146
22,COc1ccccc1N1CCN(CCCNc2cc(=O)n(C)c(=O)n2C)CC1 [Urapidil HCl],0.299
23,COc1cc(-c2cc(-c3cccc(O)c3)cnc2N)cc(OC)c1OC,3.58
24,CCCc1ncc(C[n+]2ccccc2C)c(N)n1 [Amprolium HCl],-0.314

# Given with bars between the fields: two of the compounds above.
row | Structure (SMILES) | nucleus area z-score
13 | CNC(=O)c1nn(C)c2c1C(C)(C)Cc1cnc(Nc3ccc(N4CCN(C)CC4)cc3)nc1-2 | -6.29
14 | CC(=O)O[C@H]1C[C@@H]2CC[C@@H]3[C@H](CC[C@@]4(C)[C@H]3C[C@H]([N+]3(C)CCCCC3)[C@@H]4OC(C)=O)[C@@]2(C)C[C@@H]1N1CCCCC1 [Vecuronium Bromide] | 1.02

# System: hPSC-derived cortical neurons (WA09)
# Assay: total neurite length per nucleus (MAP2) z-score; higher = more neurite growth
# Details: 5 µM; treatment: days 7-14 after plating, readout day 21
row,Structure (SMILES),total neurite length per nucleus (z-score)
1,N.N.O=C([O-])C[O-].[Pt+2] [Nedaplatin],0.0953
2,CCC1(c2c[nH]cn2)Cc2ccccc2C1 [Atipamezole],-0.453
3,CN1CCc2c(c3ccccc3n2Cc2ccc(C(=O)NO)cc2)C1 [Tubastatin A HCl],-0.47
4,O=C(CCNNC(=O)c1ccncc1)NCc1ccccc1 [Nialamide],-0.598
5,CC(=O)OCC(=O)[C@@]12N=C(C)O[C@@H]1C[C@H]1[C@@H]3CCC4=CC(=O)C=C[C@]4(C)[C@H]3[C@@H](O)C[C@@]12C [Deflazacort],1.82
6,Cc1cc(NS(=O)(=O)c2ccc(N)cc2)no1 [Sulfamethoxazole],1.62
7,Oc1nc(-c2ccc(C(F)(F)F)cc2)nc2c1CSCC2,3.74
8,CC1(COc2ccc3c(c2)ncn3-c2ccc3cccc(N4CCC(N)CC4)c3n2)COC1,0.72
9,N=C(N)N [Guanidine HCl],0.211
10,Cc1cnc(C(=O)NCCc2ccc(S(=O)(=O)NC(=O)NC3CCCCC3)cc2)cn1 [Glipizide],0.681
11,Nc1ncnc2c1c(-c1cnc3[nH]ccc3c1)nn2C1CCCC1,-1.48
12,C/C=C1/[C@H](O[C@@H]2O[C@H](CO)[C@@H](O)[C@H](O)[C@H]2O)OC=C(C(=O)OC)[C@H]1CC(=O)OCCc1ccc(O)c(O)c1 [Oleuropein],-0.015
13,N#Cc1ccc(-c2c(-c3ncn[nH]3)sc(N3CCOCC3)c2C#N)c(F)c1,-1.67
14,CC(=O)Oc1cc2c(s1)CCN(C(C(=O)C1CC1)c1ccccc1F)C2 (stereo not drawn) [Prasugrel],-0.705
15,O=C(Nc1ccc(-c2ccnc(Nc3ccc(N4CCOCC4)cc3)n2)cc1)C1CCCN1 (stereo not drawn),0.0946
16,Oc1cc2c(cc1O)[C@@H]1c3ccc(O)c(O)c3OC[C@]1(O)C2 [Hematoxylin],0.488
17,Cc1ccc(S(=O)(=O)c2ccc([N+](=O)[O-])o2)cc1,-0.508
18,Cn1sc(=O)n(Cc2ccccc2)c1=O,-0.612
19,CC(C)Cc1ccc(C(C)C(=O)O)cc1 (stereo not drawn) [Ibuprofen Lysine],0.457
20,CN1CCC[C@H]1c1cccnc1 [Nicotine Ditartrate],0.54

# Random excerpt: 2 compounds from above.
row,Structure (SMILES),total neurite length per nucleus (z-score)
10,Cc1cnc(C(=O)NCCc2ccc(S(=O)(=O)NC(=O)NC3CCCCC3)cc2)cn1 [Glipizide],0.681
17,Cc1ccc(S(=O)(=O)c2ccc([N+](=O)[O-])o2)cc1,-0.508

# Next part:

row,Structure (SMILES),total neurite length per nucleus (z-score)
1,Cn1ncc(Cl)c1-c1cc(C(=O)N[C@H](CN)Cc2ccc(F)c(F)c2)oc1Cl,-4.22
2,CCOC(=O)C1=C(COCCN)NC(C)=C(C(=O)OC)C1c1ccccc1Cl (stereo not drawn) [Amlodipine],-0.987
3,COc1cc(-c2cn(C)c(=O)c3cnccc23)cc(OC)c1CN(C)C,-0.175
4,Cc1cc(C)c(S(=O)(=O)n2cc(C)cc2C)c(C)c1,0.535
5,O=C(Nc1ccc(OC(F)(F)F)cc1)c1sccc1NCc1ccnc2ccccc12,0.783
6,CCOC(=O)[C@@H](N)Cc1ccc(-c2cc(O[C@H](c3ccc(Cl)cc3-n3ccc(C)n3)C(F)(F)F)nc(N)n2)cc1 [Telotristat Etiprate (LX 1606 Hippurate)],0.922
7,COc1cc2nccc(Oc3ccc(NC(=O)C4(C(=O)Nc5ccc(F)cc5)CC4)cc3)c2cc1OC [Cabozantinib malate (XL184)],0.942
8,CNC(=O)c1nn(C)c2c1C(C)(C)Cc1cnc(Nc3ccc(N4CCN(C)CC4)cc3)nc1-2,-1.38
9,CC(=O)O[C@H]1C[C@@H]2CC[C@@H]3[C@H](CC[C@@]4(C)[C@H]3C[C@H]([N+]3(C)CCCCC3)[C@@H]4OC(C)=O)[C@@]2(C)C[C@@H]1N1CCCCC1 [Vecuronium Bromide],-0.505
10,CC(C(=O)O)c1cccc(C(=O)c2ccccc2)c1 (stereo not drawn) [Ketoprofen],0.949
11,CC(C(=O)O)c1cccc(Oc2ccccc2)c1 (stereo not drawn) [Fenoprofen Calcium],-0.36
12,CNC[C@H](O)c1ccc(O)c(O)c1 [Epinephrine HCl],-0.168
13,COc1cc(OC)c(/C=C/S(=O)(=O)Cc2ccc(OC)c(NCC(=O)O)c2)c(OC)c1,-3.64
14,Cc1cccc(-c2nn3c(c2-c2ccnc4ccc(C(N)=O)cc24)CCC3)n1,-2.9
15,O=C(Nc1c(Cl)cncc1Cl)c1ccc(OC(F)F)c(OCC2CC2)c1 [Roflumilast],-1.06
16,Cc1cc([C@@H](C)Nc2ccccc2C(=O)O)c2nc(N3CCOCC3)cc(=O)n2c1,-0.311
17,COc1ccccc1N1CCN(CCCNc2cc(=O)n(C)c(=O)n2C)CC1 [Urapidil HCl],-0.983
18,COc1cc(-c2cc(-c3cccc(O)c3)cnc2N)cc(OC)c1OC,0.0936
19,CCCc1ncc(C[n+]2ccccc2C)c(N)n1 [Amprolium HCl],0.536

# Reference: the supplement of paper PMC11348887
